Measurements reported in the supplement of paper PMC7238544.
Structures can show the parent of a compound that is named as a salt. ± gives the standard deviation of the averaged measurements. Some of the results follow. The data scatter; read single values as rough.

What was measured:
[1] = system: hAMSC donor 1; test: Hoechst total cell count ratio vs vehicle control; higher = more cells (less toxicity)
[2] = system: hAMSC donor 2; test: as above
[3] = system: hAMSC donor 1; test: transgenic luciferase activity (RLU/mg protein) fold change vs vehicle control (ratio); higher = more transgene expression
[4] = system: hAMSC donor 2; test: as above
[5] = system: hAMSC donor 1; test: transfection efficiency (EGFP+ cells / Hoechst count) fold change vs vehicle control (ratio); hAMSC are human adipose-derived mesenchymal stem cells given an EGFP-luciferase plasmid by lipofection; higher = enhanced transfection
[6] = system: hAMSC donor 2; test: as above
[7] = priming compound concentration 0.2 µM
[8] = priming compound concentration 1.7 µM
[9] = priming compound concentration 13 µM

| SMILES | Hoechst total cell count ratio [1, 7] | Hoechst total cell count ratio [1, 8] | Hoechst total cell count ratio [1, 9] | Hoechst total cell count ratio [2, 7] | Hoechst total cell count ratio [2, 8] | Hoechst total cell count ratio [2, 9] | transgenic luciferase activity [3, 7] | transgenic luciferase activity [3, 8] | transgenic luciferase activity [3, 9] | transgenic luciferase activity [4, 9] | transfection efficiency [5, 7] | transfection efficiency [5, 8] | transfection efficiency [5, 9] | transfection efficiency [6, 7] | transfection efficiency [6, 8] | transfection efficiency [6, 9] | transgenic luciferase activity [4, 7] | transgenic luciferase activity [4, 8] |
| --- | --- | --- | --- | --- | --- | --- | --- | --- | --- | --- | --- | --- | --- | --- | --- | --- | --- | --- |
| c1ccc2c(c1)CCCC2C1=NCCN1 (centres undefined) [Tetrahydrozoline hydrochloride] | 1.45 ± 0.17 | 1.21 ± 0.041 | 1.17 ± 0.057 | 1.17 ± 0.44 | 0.912 ± 0.041 | 1.21 ± 0.087 | 0.648 ± 0.26 | 0.716 ± 0.087 | 0.556 ± 0.027 | 1.06 ± 0.22 | 0.867 ± 0.16 | 0.903 ± 0.13 | 0.909 ± 0.21 | 1.18 ± 0.41 | 1.19 ± 0.25 | 1.27 ± 0.27 |  |  |
| S=c1[nH]cnc2nc[nH]c12 [Mercaptopurine] | 0.842 ± 0.1 | 1.03 ± 0.11 | 1.11 ± 0.044 | 1.05 ± 0.22 | 0.925 ± 0.029 | 1.26 ± 0.31 | 0.615 ± 0.19 | 0.583 ± 0.3 | 0.917 ± 0.4 | 0.967 ± 0.22 | 1.66 ± 0.053 | 1.06 ± 0.13 | 0.726 ± 0.13 | 1.18 ± 0.37 | 1.09 ± 0.021 | 1.53 ± 0.53 |  |  |
| CC(=O)Nc1nnc(S(N)(=O)=O)s1 [Acetazolamide] | 1.41 ± 0.28 | 1.25 ± 0.093 | 1.22 ± 0.031 | 0.892 ± 0.1 | 0.881 ± 0.06 | 1.24 ± 0.21 | 0.594 ± 0.17 | 0.934 ± 0.087 | 1.07 ± 0.32 | 0.888 ± 0.041 | 1.29 ± 0.17 | 1.08 ± 0.17 | 0.861 ± 0.13 | 1.32 ± 0.079 | 1.11 ± 0.22 | 1.24 ± 0.25 |  |  |
| Cc1occc(=O)c1O [Maltol] | 1.106 ± 0.0029 | 1.03 ± 0.061 | 1.12 ± 0.085 | 0.788 ± 0.077 | 0.823 ± 0.09 | 1.07 ± 0.19 | 0.626 ± 0.045 | 0.978 ± 0.44 | 1.64 ± 2 | 1.14 ± 0.35 | 1.03 ± 0.099 | 1.22 ± 0.066 | 0.833 ± 0.12 | 1.25 ± 0.29 | 1.28 ± 0.2 | 1.29 ± 0.18 |  |  |
| CC[C@H](C)C(=O)O[C@H]1C[C@H](O)C=C2C=C[C@H](C)[C@H](CC[C@@H](O)C[C@@H](O)CC(=O)O)[C@H]21 [Pravastatin sodium] | 1.04 ± 0.1 | 1.09 ± 0.16 | 0.892 ± 0.042 | 0.754 ± 0.059 | 0.549 ± 0.071 | 1.09 ± 0.021 | 0.683 ± 0.23 | 0.685 ± 0.26 | 0.977 ± 0.82 | 1.18 ± 0.27 | 1.19 ± 0.019 | 1.4 ± 0.21 | 0.858 ± 0.065 | 1.32 ± 0.015 | 1.24 ± 0.11 | 1.34 ± 0.58 |  |  |
| CCOC(=O)N1CCC(=C2c3ccc(Cl)cc3CCc3cccnc32)CC1 [Loratadine] |  |  |  |  |  |  | 0.646 ± 0.054 | 0.97 ± 0.23 | 0.143 ± 0.038 | 0.747 ± 0.038 | 1.16 ± 0.2 | 1.07 ± 0.31 | 1.1 ± 0.39 | 0.849 ± 0.17 | 1.17 ± 0.1 | 1.07 ± 0.22 | 0.602 ± 0.15 | 0.587 ± 0.11 |
| CC(C)Oc1ccc2c(=O)c(-c3ccccc3)coc2c1 [Ipriflavone] | 1.39 ± 0.21 | 1.08 ± 0.055 | 1.17 ± 0.088 | 1.05 ± 0.4 | 0.75 ± 0.044 | 1.41 ± 0.21 | 0.583 ± 0.21 | 2.79 ± 1.7 | 2.08 ± 1.3 | 2.95 ± 0.41 | 0.804 ± 0.19 | 1.51 ± 0.32 | 1.46 ± 0.081 | 1.08 ± 0.23 | 1.55 ± 0.19 | 2.12 ± 0.12 |  |  |
| CC(C)[N+](C)(CCOC(=O)C1c2ccccc2Oc2ccccc21)C(C)C [Propantheline bromide] | 1.24 ± 0.21 | 1.18 ± 0.041 | 1 ± 0.17 | 0.977 ± 0.27 | 0.975 ± 0.21 | 1.13 ± 0.12 | 0.533 ± 0.2 | 0.318 ± 0.045 | 0.833 ± 0.72 | 0.951 ± 0.16 | 0.965 ± 0.14 | 0.987 ± 0.057 | 1.09 ± 0.13 | 1.21 ± 0.35 | 1.12 ± 0.021 | 1.49 ± 0.055 |  |  |
